This passage reports binding results from paper PMC6503760.

Experiment [1] deals with Arabidopsis thaliana SOBIR1 complete extracellular region (residues 1–283) (Arabidopsis thaliana) (UniProt Q9SKB2). As to the kind of experiment: condition: 200 µg of protein in 100 µl (SEC); 100 µg of protein in 50 µl (RALS); SEC + other: SEC with right-angle light scattering (RALS); Superdex 200 Increase; 20 mM sodium citrate pH 5.0, 250 mM NaCl; RALS/RI detection at a column temperature of 35°C; oligomeric state of the ectodomain in solution; both purified.

In experiment [2] the target is Arabidopsis thaliana SOBIR1 ectodomain (residues 1–270) (Arabidopsis thaliana) (UniProt Q9SKB2). In words: crystal structure; hanging drops, 20 mg/ml protein in 20 mM sodium citrate pH 5.0, 150 mM NaCl; 25% PEG 3350, 1 M LiCl, 0.1 M sodium acetate pH 5.5; space group P6_(5), dimer in the asymmetric unit; 1.55 Å; both purified.
For experiment [3] the target is unchanged. In words: condition: 200 µg of protein in 100 µl (SEC); 100 µg of protein in 50 µl (RALS); SEC + other: SEC with right-angle light scattering (RALS); Superdex 200 Increase; 20 mM sodium citrate pH 5.0, 250 mM NaCl; RALS/RI detection at a column temperature of 35°C; oligomeric state of the ectodomain in solution; both purified.

No constants are given. Whether binding was seen depends on the method and setting.

B1: Arabidopsis thaliana SOBIR1 complete extracellular region (residues 1–283) (domain or fragment, UniProt Q9SKB2 32-283)
chain: VEWLDIDSSDLKALQVIETELGVNSQRSSASDVNPCGRRGVFCERRHSATTGEYVLRVTRLVYRSRSLTGTISPVIGMLSELKELTLSNNQLVNAVPVDILSCKQLEVLDLRKNRFSGQIPGNFSSLSRLRILDLSSNKLSGNLNFLKNLRNLENLSVANNLFSGKIPEQIVSFHNLRFFDFSGNRYLEGPAPVMSSIKLQTSPHQTRHILAETPTSSPTNKPNNSTTSKAPKGAPKPGKLKKKKKKSKKKK
For B1, in experiment [1], the binding result is recorded as “no binding”.

B2: Arabidopsis thaliana SOBIR1 ectodomain (residues 1–270) (domain or fragment, UniProt Q9SKB2 32-270)
chain: VEWLDIDSSDLKALQVIETELGVNSQRSSASDVNPCGRRGVFCERRHSATTGEYVLRVTRLVYRSRSLTGTISPVIGMLSELKELTLSNNQLVNAVPVDILSCKQLEVLDLRKNRFSGQIPGNFSSLSRLRILDLSSNKLSGNLNFLKNLRNLENLSVANNLFSGKIPEQIVSFHNLRFFDFSGNRYLEGPAPVMSSIKLQTSPHQTRHILAETPTSSPTNKPNNSTTSKAPKGAPKPG
modifications: N-glycosylated; N-glycan attached to Asn154
Regarding B2, the binding entry in experiment [2] and in experiment [3] was “no binding” throughout.
